Results: patent publication US20250326720A1, “CAREBASTINE SALT AND USE OF SAME” (priority 2022, published 2025)
Some entries share one result that the patent states for a list of compounds.

Test system: KM mice
Conditions: single intragastric administration
Protocol: All drugs were administered by intragastric administration, and the blank control group was administered with an equal volume of 0.5% CMC-Na solution. All animals were fasted for 12 hours before administration, but were allowed to drink water freely.
After administration, the mice were kept and observed for 14 days, and the toxic reactions (such as death) of the mice were observed and recorded every day. After the observation period, all surviving animals were dissected to observe whether there were obvious lesions in each organ.

Row | SMILES | MDT [g/kg]
1 | CC(C)(C(=O)[O-])c1ccc(C(=O)CCCN2CCC(OC(c3ccccc3)c3ccccc3)CC2)cc1.[K+] [Example 1, potassium 2-(4-(4-(4-(diphenylmethoxy)piperidin-1-yl)butyryl)phenyl)-2-methylpropanoate] | > 2.5
2 | CC(C)(C(=O)O)c1ccc(C(=O)CCCN2CCC(OC(c3ccccc3)c3ccccc3)CC2)cc1.Cc1ccc(S(=O)(=O)O)cc1 [Example 3, 2-(4-(4-(4-(diphenylmethoxy)piperidin-1-yl)butyryl)phenyl)-2-methylpropanoic acid p-toluenesulfonate] | > 2.5
